Assay results reported in the supplement of paper PMC10727501.
Some of the results follow. This data set is noisy: repeats of one test often differ as much as different tests do.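 Free-swimming zebrafish larvae were assessed for O-bend response probability to dark flashes (naive: first five; training: remaining flashes across four 60-flash blocks; test: later 60-flash block) and for OMR turning toward alternating leftward/rightward LED motion. Six treated larvae were compared against sixty 0.1% DMSO controls; hits required |SSMD|≥2.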

Each molecule was assayed on Danio rerio larvae (5 dpf, TLF) (assay: OMR-Perf (SSMD vs DMSO vehicle); higher = higher than vehicle (e.g. higher dark-flash O-bend response probability, or better optomotor performance)). Conditions: 10 µM; pre-incubation: 30-90 min.
In the case of CO[C@@H](C(=O)N1Cc2[nH]nc(NC(=O)c3ccc(N4CCN(C)CC4)cc3)c2C1)c1ccccc1, the OMR-Perf is reported as -0.462.
For C[N+](C)(CCOc1ccccc1)Cc1ccccc1.O=C(O)c1cc2ccccc2cc1[O-] [Bephenium Hydroxynaphthoate], the OMR-Perf was 0.133.
For COc1nc(C)cnc1NS(=O)(=O)c1cccnc1-c1ccc(-c2nnco2)cc1 [Zibotentan (ZD4054)], the OMR-Perf was -0.147.
With CCN(CC)C(=O)/C(C#N)=C/c1cc(O)c(O)c([N+](=O)[O-])c1 [Entacapone] the OMR-Perf was -0.236.
CCCCC(=O)O[C@@]1(C(=O)CO)[C@@H](C)C[C@H]2[C@@H]3CCC4=CC(=O)C=C[C@]4(C)[C@]3(F)[C@H](O)C[C@@]21C [Betamethasone valerate (Betnovate)] gave an OMR-Perf of 0.112.
Molecule CN1CCN(c2c(F)cc3c(=O)c(C(=O)O)cn4c3c2OCN4C)CC1 [Marbofloxacin] has an OMR-Perf of -0.662.
In the case of CNC1CCCN(c2c(F)cc3c(=O)c(C(=O)O)cn(C4CC4)c3c2OC)C1 (stereo not drawn) [Balofloxacin], the OMR-Perf is reported as -0.237.
In the case of O=c1[nH]cnc2c1ncn2[C@H]1O[C@H](CO)[C@@H](O)[C@H]1O [Inosine], the OMR-Perf is reported as -0.731.
Work on CO[C@H]1C[C@@H]2CC[C@@H](C)[C@@](O)(O2)C(=O)C(=O)N2CCCC[C@H]2C(=O)O[C@H]([C@H](C)C[C@@H]2CC[C@@H](O)[C@H](OC)C2)CC(=O)[C@H](C)/C=C(\C)[C@@H](O)[C@@H](OC)C(=O)[C@H](C)C[C@H](C)/C=C/C=C/C=C/1C [Rapamycin (Sirolimus)] yielded an OMR-Perf of 0.0655.
N#C/C(=C(/N)Sc1ccc(N)cc1)c1ccccc1C(F)(F)F was tested, and the OMR-Perf was -0.459.
CC(O)(P(=O)(O)O)P(=O)(O)O [Etidronate (Didronel)] was tested, and the OMR-Perf was -0.594.
N[C@@H](Cc1cc(I)c(Oc2ccc(O)c(I)c2)c(I)c1)C(=O)[O-].[Na+] [Liothyronine Sodium] gave an OMR-Perf of 0.0447.
Work on C[C@]12CCC(=O)C=C1CC[C@@H]1[C@H]2[C@H](O)C[C@@]2(C)[C@H]1CC[C@@]2(O)C(=O)CO [Hydrocortisone] yielded an OMR-Perf of 0.506.
COc1cc(N2CCC(N3CCN(C)CC3)CC2)ccc1Nc1ncc(Cl)c(Nc2ccccc2S(=O)(=O)C(C)C)n1 was tested, and the OMR-Perf was -0.0449.
For Cc1cnc(C(=O)NCCc2ccc(S(=O)(=O)NC(=O)NC3CCCCC3)cc2)cn1 [Glipizide], the OMR-Perf was 0.473.
Work on COc1c(N2CCNC(C)C2)c(F)cc2c(=O)c(C(=O)O)cn(C3CC3)c12 (stereo not drawn) [Gatifloxacin] yielded an OMR-Perf of -0.536.
With COc1cc(C(=O)NC2CCCNC2)cc(OC)c1OC (stereo not drawn) [Troxipide] the OMR-Perf was 0.225.
OC[C@H]1O[C@@H](c2ccc(Cl)c(Cc3ccc(O[C@H]4CCOC4)cc3)c2)[C@H](O)[C@@H](O)[C@@H]1O gave an OMR-Perf of 0.151.
Work on Cn1cnc2c1c(=O)[nH]c(=O)n2C [Theobromine] yielded an OMR-Perf of -0.25.
CC(C)(C)c1cnc(CSc2cnc(NC(=O)C3CCNCC3)s2)o1 gave an OMR-Perf of -0.264.
Work on COc1cc2ncnc(Nc3ccc(Cl)cc3F)c2cc1OC yielded an OMR-Perf of 0.729.
Work on CS(=O)(=O)N1CCN(Cc2cc3nc(-c4cccc5[nH]ncc45)nc(N4CCOCC4)c3s2)CC1 yielded an OMR-Perf of -0.436.
Work on CCOC(=O)[C@H](CCc1ccccc1)N[C@H]1CCCN2CCC[C@H](C(=O)O)N2C1=O.O [Cilazapril Monohydrate] yielded an OMR-Perf of 0.221.
Molecule O=c1cc(O)c(Cl)c[nH]1 [Gimeracil] has an OMR-Perf of -0.885.
With CO[C@H]1/C=C/O[C@]2(C)Oc3c(C)c(O)c4c(O)c(c5c(nc6cc(C)ccn65)c4c3C2=O)NC(=O)/C(C)=C\C=C\[C@@H](C)[C@H](O)[C@H](C)[C@@H](O)[C@@H](C)[C@H](OC(C)=O)[C@@H]1C [Rifaximin] the OMR-Perf was 0.00472.
Cl.Nc1c2c(nc3ccccc13)CCCC2 [Tacrine HCl] showed an OMR-Perf of 0.252.
In the case of CC(C)Cn1cnc2c(N)nc3ccccc3c21 [Imiquimod], the OMR-Perf is reported as -0.291.
Molecule COc1ccc2cc(-c3[nH]c(-c4ccc(S(C)=O)cc4)nc3-c3ccncc3)ccc2c1 (stereo not drawn) [Tie2 kinase inhibitor] has an OMR-Perf of -0.113.
NS(=O)(=O)c1cc2c(cc1Cl)N=CNS2(=O)=O [Chlorothiazide] was tested, and the OMR-Perf was 0.287.

The molecules below were run on Danio rerio larvae (5 dpf, TLF) (assay: Prob-Test (SSMD vs DMSO vehicle); higher = higher than vehicle (e.g. higher dark-flash O-bend response probability, or better optomotor performance)). Conditions: 10 µM; pre-incubation: 30-90 min.
CC(=O)S[C@@H]1CC2=CC(=O)CC[C@]2(C)[C@@H]2CC[C@@]3(C)[C@@H](CC[C@]34CCC(=O)O4)[C@@H]21 [Spironolactone] was tested, and the Prob-Test was -0.379.
In the case of CC[C@@H](CO)NCCN[C@@H](CC)CO.Cl.Cl [Ethambutol HCl], the Prob-Test is reported as -0.257.
For C#CCN(C)CCCOc1ccc(Cl)cc1Cl.Cl [Clorgyline HCl], the Prob-Test was -1.97.
Work on O=C(NOC[C@H](O)CO)c1ccc(F)c(F)c1Nc1ccc(I)cc1F yielded a Prob-Test of -1.49.
COc1cc2ncnc(Nc3cccc(Br)c3)c2cc1OC.Cl gave a Prob-Test of -0.221.
For CC(C(=O)[O-])c1cccc(Oc2ccccc2)c1.CC(C(=O)[O-])c1cccc(Oc2ccccc2)c1.[Ca+2] (stereo not drawn) [Fenoprofen Calcium], the Prob-Test was -1.49.
Cc1nccn1CC1CCc2c(c3ccccc3n2C)C1=O.Cl (stereo not drawn) [Ondansetron HCl] showed a Prob-Test of 0.644.
COc1cc2c(cc1OC)[C@@H]1Cc3ccc(OC)c(OC)c3CN1CC2 [Rotundine] was tested, and the Prob-Test was -0.507.
For CC(C)(C(=O)O)c1ccc(C(O)CCCN2CCC(C(O)(c3ccccc3)c3ccccc3)CC2)cc1.Cl (stereo not drawn) [Fexofenadine HCl], the Prob-Test was -0.876.
Cc1cccc(C#Cc2ccccc2)n1 showed a Prob-Test of -1.07.
With C[C@H]1C[C@@H]2[C@@H]([C@H](O)C[C@@]3(C)[C@H]2CC[C@@]3(O)C(=O)CO)[C@@]2(C)C=CC(=O)C=C12 [Methylprednisolone] the Prob-Test was -0.256.
CO[C@@H](C(=O)N1Cc2[nH]nc(NC(=O)c3ccc(N4CCN(C)CC4)cc3)c2C1)c1ccccc1 gave a Prob-Test of -0.123.
Molecule C[N+](C)(CCOc1ccccc1)Cc1ccccc1.O=C(O)c1cc2ccccc2cc1[O-] [Bephenium Hydroxynaphthoate] has a Prob-Test of 0.43.
In the case of COc1nc(C)cnc1NS(=O)(=O)c1cccnc1-c1ccc(-c2nnco2)cc1 [Zibotentan (ZD4054)], the Prob-Test is reported as 0.528.
CCN(CC)C(=O)/C(C#N)=C/c1cc(O)c(O)c([N+](=O)[O-])c1 [Entacapone] was tested, and the Prob-Test was -0.0896.
With CCCCC(=O)O[C@@]1(C(=O)CO)[C@@H](C)C[C@H]2[C@@H]3CCC4=CC(=O)C=C[C@]4(C)[C@]3(F)[C@H](O)C[C@@]21C [Betamethasone valerate (Betnovate)] the Prob-Test was -0.457.
Molecule CN1CCN(c2c(F)cc3c(=O)c(C(=O)O)cn4c3c2OCN4C)CC1 [Marbofloxacin] has a Prob-Test of 0.273.
Molecule CNC1CCCN(c2c(F)cc3c(=O)c(C(=O)O)cn(C4CC4)c3c2OC)C1 (stereo not drawn) [Balofloxacin] has a Prob-Test of -0.911.
O=c1[nH]cnc2c1ncn2[C@H]1O[C@H](CO)[C@@H](O)[C@H]1O [Inosine] showed a Prob-Test of -0.874.
For CO[C@H]1C[C@@H]2CC[C@@H](C)[C@@](O)(O2)C(=O)C(=O)N2CCCC[C@H]2C(=O)O[C@H]([C@H](C)C[C@@H]2CC[C@@H](O)[C@H](OC)C2)CC(=O)[C@H](C)/C=C(\C)[C@@H](O)[C@@H](OC)C(=O)[C@H](C)C[C@H](C)/C=C/C=C/C=C/1C [Rapamycin (Sirolimus)], the Prob-Test was 0.147.
With N#C/C(=C(/N)Sc1ccc(N)cc1)c1ccccc1C(F)(F)F the Prob-Test was -1.56.
In the case of CC(O)(P(=O)(O)O)P(=O)(O)O [Etidronate (Didronel)], the Prob-Test is reported as -0.307.
N[C@@H](Cc1cc(I)c(Oc2ccc(O)c(I)c2)c(I)c1)C(=O)[O-].[Na+] [Liothyronine Sodium] was tested, and the Prob-Test was -1.15.
C[C@]12CCC(=O)C=C1CC[C@@H]1[C@H]2[C@H](O)C[C@@]2(C)[C@H]1CC[C@@]2(O)C(=O)CO [Hydrocortisone] gave a Prob-Test of 0.243.
COc1cc(N2CCC(N3CCN(C)CC3)CC2)ccc1Nc1ncc(Cl)c(Nc2ccccc2S(=O)(=O)C(C)C)n1 gave a Prob-Test of 0.346.
Cc1cnc(C(=O)NCCc2ccc(S(=O)(=O)NC(=O)NC3CCCCC3)cc2)cn1 [Glipizide] showed a Prob-Test of -0.446.
Work on COc1c(N2CCNC(C)C2)c(F)cc2c(=O)c(C(=O)O)cn(C3CC3)c12 (stereo not drawn) [Gatifloxacin] yielded a Prob-Test of 0.207.
COc1cc(C(=O)NC2CCCNC2)cc(OC)c1OC (stereo not drawn) [Troxipide] was tested, and the Prob-Test was 0.558.
For OC[C@H]1O[C@@H](c2ccc(Cl)c(Cc3ccc(O[C@H]4CCOC4)cc3)c2)[C@H](O)[C@@H](O)[C@@H]1O, the Prob-Test was -0.0284.
Cn1cnc2c1c(=O)[nH]c(=O)n2C [Theobromine] was tested, and the Prob-Test was -0.887.
Molecule CC(C)(C)c1cnc(CSc2cnc(NC(=O)C3CCNCC3)s2)o1 has a Prob-Test of -0.564.
Work on COc1cc2ncnc(Nc3ccc(Cl)cc3F)c2cc1OC yielded a Prob-Test of -0.372.
For CS(=O)(=O)N1CCN(Cc2cc3nc(-c4cccc5[nH]ncc45)nc(N4CCOCC4)c3s2)CC1, the Prob-Test was -0.464.
With CCOC(=O)[C@H](CCc1ccccc1)N[C@H]1CCCN2CCC[C@H](C(=O)O)N2C1=O.O [Cilazapril Monohydrate] the Prob-Test was -0.0153.
